Reference: PubChem BioAssay AID504793 (Drosophila RNAi Screening Center, 2011)
Purpose: 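Whole-genome screen for parts of the DNA damage checkpoint at G2/M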 (primary screen). Cell system: Drosophila S2R+ cells. Reagents: long dsRNA against Drosophila genes, about 0.25 µg dsRNA per well. Duration: 4 days of dsRNA, then 4 hours of drug before read-out. Challenge: doxorubicin 0.5 µM for 4 hours to cause double-strand breaks, in cells also given a low, harmless dose of dsRNA against nbs to sensitise the assay. Read-out: 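Per-well count of mitotic cells stained for phospho-histone H3 after doxorubicin exposure, used as mitotic index; counts are raw and not normalised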. Scale: mitotic cells: higher = more cells in mitosis, weaker G2 arrest. Hit rule: 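Genes are called active only when high mitotic counts were reproduced with independent dsRNAs and mitosis was checked for delay without damage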. Meaning of the calls: active = confirmed in follow-up tests; inactive = not confirmed.
The screen tested about 23,000 reagents; this is an unselected part of those that have a named target and a result. Over the whole deposit, 62 (0.27%) got an active call. 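Calls come from follow-up tests whose scores are not deposited, so confirmed genes may have low counts here; counts are not normalised per plate.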 Raw values vary from plate to plate and are shown uncorrected.

no.	Gene	dsRNA	mitotic cells, replicate 1	call
1	CG5676 (GeneID 34368)	DRSC02875	5	inactive
2	CG15423 (GeneID 33616)	DRSC00437	3	inactive
3	CG15423 (GeneID 33616)	DRSC29587	4	inactive
4	CG34331 (GeneID 33011)	DRSC20679	5	inactive
5	Hap40 (GeneID 32507)	DRSC20085	5	inactive
6	Hap40 (GeneID 32507)	DRSC26124	4	inactive
7	CG16798 (GeneID 35308)	DRSC02517	9	inactive
8	CG42534 (GeneID 43298)	DRSC16072	13	inactive
9	CG42534 (GeneID 43298)	DRSC23131	7	inactive
10	CG42534 (GeneID 43298)	DRSC23246	12	inactive
11	CG42534 (GeneID 43298)	DRSC26096	7	inactive
12	CG4577 (GeneID 33291)	DRSC00658	2	inactive
13	CG30491 (GeneID 35704)	DRSC21472	7	inactive
14	CG30491 (GeneID 35704)	DRSC25369	7	inactive
15	CG32052 (GeneID 326184)	DRSC10966	5	inactive
16	CG32052 (GeneID 326184)	DRSC27465	4	inactive
17	Acp53C14b (GeneID 36873)	DRSC06569	6	inactive
18	lncRNA:CR33987 (GeneID 3885608)	DRSC26079	5	inactive
19	mnd (GeneID 39625)	DRSC11370	1	inactive
20	CG10366 (GeneID 35258)	DRSC02046	5	inactive
21	CG10366 (GeneID 35258)	DRSC26463	5	inactive
22	Pbp95 (GeneID 40949)	DRSC15448	4	inactive
23	Pbp95 (GeneID 40949)	DRSC27283	4	inactive
24	Cp15 (GeneID 38999)	DRSC11118	6	inactive
25	Cp15 (GeneID 38999)	DRSC28629	7	inactive
26	pic (GeneID 41611)	DRSC16639	20	active
27	mRpL28 (GeneID 33715)	DRSC02724	4	inactive
28	asp (GeneID 42946)	DRSC16903	8	inactive
29	Arp3 (GeneID 38898)	DRSC09669	8	inactive
30	Arp3 (GeneID 38898)	DRSC29666	6	inactive
31	CG14454 (GeneID 40482)	DRSC11711	3	inactive
32	CG14454 (GeneID 40482)	DRSC23866	4	inactive
33	CG14377 (GeneID 41649)	DRSC14837	9	inactive
34	CG14377 (GeneID 41649)	DRSC26342	8	inactive
35	CG9171 (GeneID 33807)	DRSC03152	4	inactive
36	CG9171 (GeneID 33807)	DRSC21813	11	inactive
37	CG9171 (GeneID 33807)	DRSC24830	9	inactive
38	Polr2E (GeneID 36160)	DRSC06100	20	active
39	ds (GeneID 33245)	DRSC00815	3	inactive
40	SmD3 (GeneID 36306)	DRSC07553	4	inactive
41	SmD3 (GeneID 36306)	DRSC29356	1	inactive
42	Opa1 (GeneID 36578)	DRSC07191	6	inactive
43	Opa1 (GeneID 36578)	DRSC28908	6	inactive
44	LysRS (GeneID 31904)	DRSC17824	13	inactive
45	LysRS (GeneID 31904)	DRSC25618	5	inactive
46	CG5846 (GeneID 34326)	DRSC02904	4	inactive
47	PpY-55A (GeneID 48532)	DRSC07513	5	inactive
48	PpY-55A (GeneID 48532)	DRSC23328	7	inactive
49	PpY-55A (GeneID 48532)	DRSC26547	16	inactive
50	CG13116 (GeneID 34288)	DRSC02214	12	inactive
51	CG13116 (GeneID 34288)	DRSC21945	9	inactive
52	CG13116 (GeneID 34288)	DRSC26916	9	inactive
53	CG2839 (GeneID 33244)	DRSC00544	2	inactive
54	CG2839 (GeneID 33244)	DRSC28090	7	inactive
55	mRpL32 (GeneID 43698)	DRSC14479	17	inactive
56	flw (GeneID 44289)	DRSC17992	8	inactive
57	flw (GeneID 44289)	DRSC18774	22	inactive
58	flw (GeneID 44289)	DRSC25161	9	inactive
59	CG12436 (retired record) (GeneID 39838)	DRSC09869	6	inactive
60	CG12436 (retired record) (GeneID 39838)	DRSC09885	5	inactive
61	CG12436 (retired record) (GeneID 39838)	DRSC26831	10	inactive
62	CG14495 (GeneID 37056)	DRSC06466	13	inactive
63	7B2 (GeneID 40644)	DRSC11991	3	inactive
64	Mal-A2 (GeneID 35825)	DRSC07460	15	inactive
65	Sytalpha (GeneID 35068)	DRSC02869	7	inactive
66	CG10508 (GeneID 40342)	DRSC11612	4	inactive
67	CG10508 (GeneID 40342)	DRSC11613	2	inactive
68	ppk23 (GeneID 32731)	DRSC20110	7	inactive
69	ppk23 (GeneID 32731)	DRSC26441	4	inactive
70	fs(1)M3 (GeneID 45994)	DRSC18381	3	inactive
71	fs(1)M3 (GeneID 45994)	DRSC29155	5	inactive
72	CG17219 (GeneID 33515)	DRSC00486	5	inactive
73	Cpsf5 (GeneID 39083)	DRSC10374	5	inactive
74	Cpsf5 (GeneID 39083)	DRSC27451	16	inactive
75	CG7220 (GeneID 36129)	DRSC05235	5	inactive
76	CG7220 (GeneID 36129)	DRSC07018	9	inactive
77	CG7220 (GeneID 36129)	DRSC26138	8	inactive
78	Sgs5bis (GeneID 42113)	DRSC16263	3	inactive
79	CG31109 (GeneID 43001)	DRSC14648	13	inactive
80	CG31249 (GeneID 42129)	DRSC16248	8	inactive
81	trv (GeneID 43362)	DRSC13846	10	inactive
82	trv (GeneID 43362)	DRSC14560	12	inactive
83	trv (GeneID 43362)	DRSC14561	9	inactive
84	trv (GeneID 43362)	DRSC25527	5	inactive
85	trv (GeneID 43362)	DRSC25789	3	inactive
86	PGRP-LF (GeneID 39064)	DRSC28930	6	inactive
87	mRpL45 (GeneID 42671)	DRSC16146	17	inactive
88	Alg11 (GeneID 40402)	DRSC11647	3	inactive
89	ATPsynB (GeneID 39143)	DRSC09659	3	inactive
90	CG15631 (GeneID 33675)	DRSC00466	8	inactive
91	CG33768 (GeneID 3771840)	DRSC11715	5	inactive
92	Ets98B (GeneID 43334)	DRSC16666	9	inactive
93	Ets98B (GeneID 43334)	DRSC24625	5	inactive
94	jef (GeneID 36634)	DRSC06198	8	inactive
95	jef (GeneID 36634)	DRSC24815	2	inactive
96	Sod3 (GeneID 36232)	DRSC07324	4	inactive
97	Sod3 (GeneID 36232)	DRSC26222	2	inactive
98	Syx13 (GeneID 39485)	DRSC09836		inactive
99	djl (GeneID 40839)	DRSC12578	4	inactive
100	djl (GeneID 40839)	DRSC25609	6	inactive
101	CG31900 (retired record) (GeneID 319013)	DRSC21835	6	inactive
102	CG13581 (GeneID 37911)	DRSC04216	7	inactive
103	CG2909 (GeneID 31958)	DRSC18241	7	inactive
104	CG6209 (GeneID 36517)	DRSC06968	9	inactive
105	CG6209 (GeneID 36517)	DRSC28800	8	inactive
106	BBS1 (GeneID 38780)	DRSC10196	8	inactive
107	CG13689 (GeneID 33241)	DRSC00358	8	inactive
108	tup (GeneID 35147)	DRSC03627	8	inactive
109	tup (GeneID 35147)	DRSC23978	9	inactive
110	Mfe2 (GeneID 32582)	DRSC19869	8	inactive

5 successive records already listed:
no.	Gene	dsRNA	mitotic cells, replicate 1	call
59	CG12436 (retired record) (GeneID 39838)	DRSC09869	6	inactive
60	CG12436 (retired record) (GeneID 39838)	DRSC09885	5	inactive
61	CG12436 (retired record) (GeneID 39838)	DRSC26831	10	inactive
62	CG14495 (GeneID 37056)	DRSC06466	13	inactive
63	7B2 (GeneID 40644)	DRSC11991	3	inactive
